Data: the supplement of paper PMC10849652
Some of the results follow.

Protein sequences, listed by entry. Tags and fused reporters are not part of them. Lines headed by an entry give the natural chain unless they say otherwise; changes in a name come on top.
UniProt Q8TAG9: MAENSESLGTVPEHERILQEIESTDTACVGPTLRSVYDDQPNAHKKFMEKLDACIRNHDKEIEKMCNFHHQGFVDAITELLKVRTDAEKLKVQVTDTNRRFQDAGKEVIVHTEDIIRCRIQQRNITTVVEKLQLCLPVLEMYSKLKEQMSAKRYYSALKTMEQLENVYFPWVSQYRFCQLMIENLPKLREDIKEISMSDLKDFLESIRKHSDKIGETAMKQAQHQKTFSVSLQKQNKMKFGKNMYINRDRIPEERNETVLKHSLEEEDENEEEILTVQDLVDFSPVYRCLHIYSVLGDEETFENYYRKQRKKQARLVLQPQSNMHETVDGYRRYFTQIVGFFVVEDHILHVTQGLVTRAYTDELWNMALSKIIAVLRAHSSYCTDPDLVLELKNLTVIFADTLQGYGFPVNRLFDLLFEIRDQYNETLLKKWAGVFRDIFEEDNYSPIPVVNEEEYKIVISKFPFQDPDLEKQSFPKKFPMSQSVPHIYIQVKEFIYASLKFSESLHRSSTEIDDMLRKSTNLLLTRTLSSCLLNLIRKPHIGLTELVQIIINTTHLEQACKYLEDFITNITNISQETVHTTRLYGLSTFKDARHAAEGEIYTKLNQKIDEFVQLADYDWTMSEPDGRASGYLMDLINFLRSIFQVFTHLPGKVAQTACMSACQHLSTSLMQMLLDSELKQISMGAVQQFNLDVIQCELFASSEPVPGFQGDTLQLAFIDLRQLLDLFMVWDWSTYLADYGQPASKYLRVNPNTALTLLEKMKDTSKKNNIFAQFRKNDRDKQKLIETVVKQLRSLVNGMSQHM
UniProt Q9BS26: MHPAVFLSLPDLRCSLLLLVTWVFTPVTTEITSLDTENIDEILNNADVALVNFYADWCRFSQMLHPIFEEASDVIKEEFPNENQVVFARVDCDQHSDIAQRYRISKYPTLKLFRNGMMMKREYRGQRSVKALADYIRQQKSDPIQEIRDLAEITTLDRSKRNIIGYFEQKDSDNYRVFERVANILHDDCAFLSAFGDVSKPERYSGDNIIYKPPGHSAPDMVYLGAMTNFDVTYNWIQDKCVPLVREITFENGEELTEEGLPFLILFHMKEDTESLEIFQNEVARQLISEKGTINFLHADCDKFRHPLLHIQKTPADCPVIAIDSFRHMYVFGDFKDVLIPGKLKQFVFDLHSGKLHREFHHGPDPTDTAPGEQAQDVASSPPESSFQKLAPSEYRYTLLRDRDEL
UniProt Q9NV70: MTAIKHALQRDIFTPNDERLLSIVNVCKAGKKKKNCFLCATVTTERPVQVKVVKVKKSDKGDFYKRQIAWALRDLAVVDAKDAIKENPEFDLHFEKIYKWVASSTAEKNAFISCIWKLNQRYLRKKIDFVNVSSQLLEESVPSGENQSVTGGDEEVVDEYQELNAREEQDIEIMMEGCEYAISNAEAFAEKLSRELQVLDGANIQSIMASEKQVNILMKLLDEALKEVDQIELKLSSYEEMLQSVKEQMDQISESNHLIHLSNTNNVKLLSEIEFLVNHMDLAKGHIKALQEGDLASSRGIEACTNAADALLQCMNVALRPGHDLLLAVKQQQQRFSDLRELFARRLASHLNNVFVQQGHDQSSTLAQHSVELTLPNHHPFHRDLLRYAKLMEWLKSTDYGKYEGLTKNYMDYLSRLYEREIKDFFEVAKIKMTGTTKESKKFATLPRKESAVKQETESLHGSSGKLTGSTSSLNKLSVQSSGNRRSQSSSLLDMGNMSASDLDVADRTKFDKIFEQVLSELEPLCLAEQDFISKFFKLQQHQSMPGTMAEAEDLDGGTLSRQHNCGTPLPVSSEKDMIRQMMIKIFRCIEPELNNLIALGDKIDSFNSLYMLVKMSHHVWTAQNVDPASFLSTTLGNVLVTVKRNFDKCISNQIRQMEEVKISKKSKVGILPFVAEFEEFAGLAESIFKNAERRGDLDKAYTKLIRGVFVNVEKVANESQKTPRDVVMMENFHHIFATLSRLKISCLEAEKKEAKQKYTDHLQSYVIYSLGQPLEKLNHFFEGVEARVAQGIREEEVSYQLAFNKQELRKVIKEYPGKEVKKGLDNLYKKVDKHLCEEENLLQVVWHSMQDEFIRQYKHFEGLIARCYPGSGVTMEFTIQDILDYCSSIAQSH
UniProt Q9NPD3, whole entry, looked up: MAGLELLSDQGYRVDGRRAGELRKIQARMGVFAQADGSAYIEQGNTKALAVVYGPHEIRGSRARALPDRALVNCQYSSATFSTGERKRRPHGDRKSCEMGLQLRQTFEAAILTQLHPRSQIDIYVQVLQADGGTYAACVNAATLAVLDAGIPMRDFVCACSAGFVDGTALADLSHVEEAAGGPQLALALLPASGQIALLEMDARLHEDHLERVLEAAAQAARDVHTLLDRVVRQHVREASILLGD
UniProt P10768: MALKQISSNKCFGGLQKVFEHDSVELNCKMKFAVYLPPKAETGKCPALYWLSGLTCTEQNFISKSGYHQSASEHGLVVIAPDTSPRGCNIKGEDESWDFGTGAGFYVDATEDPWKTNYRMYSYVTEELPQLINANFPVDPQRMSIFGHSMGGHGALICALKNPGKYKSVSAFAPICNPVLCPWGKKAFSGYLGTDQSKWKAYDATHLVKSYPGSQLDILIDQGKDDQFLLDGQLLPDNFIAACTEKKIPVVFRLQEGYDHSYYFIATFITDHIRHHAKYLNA
UniProt Q9NQT4, whole entry, looked up: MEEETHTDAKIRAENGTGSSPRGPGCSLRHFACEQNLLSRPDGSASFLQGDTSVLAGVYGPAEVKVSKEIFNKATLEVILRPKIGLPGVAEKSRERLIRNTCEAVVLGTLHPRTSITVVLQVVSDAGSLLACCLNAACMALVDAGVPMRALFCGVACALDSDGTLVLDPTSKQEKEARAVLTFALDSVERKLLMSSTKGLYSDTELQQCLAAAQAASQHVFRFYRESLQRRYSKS
UniProt Q9H4H8: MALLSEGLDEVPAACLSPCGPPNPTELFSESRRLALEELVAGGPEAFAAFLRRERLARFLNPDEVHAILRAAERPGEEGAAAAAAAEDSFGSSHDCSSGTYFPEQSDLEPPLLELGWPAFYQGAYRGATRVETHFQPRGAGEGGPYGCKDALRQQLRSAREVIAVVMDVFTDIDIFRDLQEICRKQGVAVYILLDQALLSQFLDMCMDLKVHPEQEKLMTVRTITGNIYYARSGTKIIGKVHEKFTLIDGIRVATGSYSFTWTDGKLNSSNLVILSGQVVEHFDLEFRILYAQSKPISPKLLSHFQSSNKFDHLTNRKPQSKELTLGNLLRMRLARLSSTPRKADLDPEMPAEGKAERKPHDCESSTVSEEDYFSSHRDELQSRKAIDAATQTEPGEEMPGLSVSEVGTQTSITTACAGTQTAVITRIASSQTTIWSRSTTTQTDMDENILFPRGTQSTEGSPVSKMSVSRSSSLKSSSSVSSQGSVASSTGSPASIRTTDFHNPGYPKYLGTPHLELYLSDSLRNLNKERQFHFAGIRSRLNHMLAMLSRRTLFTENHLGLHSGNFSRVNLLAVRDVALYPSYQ
UniProt Q16134: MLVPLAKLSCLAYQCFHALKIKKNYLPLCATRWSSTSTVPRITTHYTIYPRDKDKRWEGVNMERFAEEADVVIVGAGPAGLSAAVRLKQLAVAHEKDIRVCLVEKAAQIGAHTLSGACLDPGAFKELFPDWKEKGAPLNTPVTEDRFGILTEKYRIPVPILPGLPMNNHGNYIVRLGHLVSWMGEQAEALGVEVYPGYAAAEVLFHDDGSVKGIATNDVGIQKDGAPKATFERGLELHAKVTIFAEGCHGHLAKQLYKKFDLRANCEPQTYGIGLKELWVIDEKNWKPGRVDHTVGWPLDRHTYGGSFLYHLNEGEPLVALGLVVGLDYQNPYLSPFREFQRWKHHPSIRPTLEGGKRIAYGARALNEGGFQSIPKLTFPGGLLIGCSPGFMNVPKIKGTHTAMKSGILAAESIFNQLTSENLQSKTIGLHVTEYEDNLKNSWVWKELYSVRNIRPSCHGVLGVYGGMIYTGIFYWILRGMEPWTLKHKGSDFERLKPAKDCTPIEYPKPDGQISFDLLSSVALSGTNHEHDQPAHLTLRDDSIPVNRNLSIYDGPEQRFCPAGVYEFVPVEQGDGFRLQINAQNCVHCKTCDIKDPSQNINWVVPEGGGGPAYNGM
UniProt Q9Y3B2, whole entry, looked up: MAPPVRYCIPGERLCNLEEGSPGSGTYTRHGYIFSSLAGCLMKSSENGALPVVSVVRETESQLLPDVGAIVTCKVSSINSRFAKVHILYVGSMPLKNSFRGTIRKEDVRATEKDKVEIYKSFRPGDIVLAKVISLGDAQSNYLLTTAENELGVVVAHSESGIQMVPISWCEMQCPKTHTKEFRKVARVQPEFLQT
UniProt Q86UY5: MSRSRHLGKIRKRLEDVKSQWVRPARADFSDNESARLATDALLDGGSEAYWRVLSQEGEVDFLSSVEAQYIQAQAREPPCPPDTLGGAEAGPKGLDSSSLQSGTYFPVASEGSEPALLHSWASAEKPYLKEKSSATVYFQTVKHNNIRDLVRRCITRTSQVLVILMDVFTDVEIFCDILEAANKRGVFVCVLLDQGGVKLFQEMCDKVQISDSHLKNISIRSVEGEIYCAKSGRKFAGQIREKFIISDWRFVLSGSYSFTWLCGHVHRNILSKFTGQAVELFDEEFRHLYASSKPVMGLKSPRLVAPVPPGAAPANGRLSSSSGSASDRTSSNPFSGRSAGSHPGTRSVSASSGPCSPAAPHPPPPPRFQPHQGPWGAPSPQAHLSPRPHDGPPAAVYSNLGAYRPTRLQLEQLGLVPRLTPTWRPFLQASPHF
UniProt Q96A26: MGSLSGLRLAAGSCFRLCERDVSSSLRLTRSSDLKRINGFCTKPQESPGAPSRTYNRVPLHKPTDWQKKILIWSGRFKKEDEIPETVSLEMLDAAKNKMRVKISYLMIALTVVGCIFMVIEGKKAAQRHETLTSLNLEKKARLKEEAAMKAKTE
UniProt Q0VG06: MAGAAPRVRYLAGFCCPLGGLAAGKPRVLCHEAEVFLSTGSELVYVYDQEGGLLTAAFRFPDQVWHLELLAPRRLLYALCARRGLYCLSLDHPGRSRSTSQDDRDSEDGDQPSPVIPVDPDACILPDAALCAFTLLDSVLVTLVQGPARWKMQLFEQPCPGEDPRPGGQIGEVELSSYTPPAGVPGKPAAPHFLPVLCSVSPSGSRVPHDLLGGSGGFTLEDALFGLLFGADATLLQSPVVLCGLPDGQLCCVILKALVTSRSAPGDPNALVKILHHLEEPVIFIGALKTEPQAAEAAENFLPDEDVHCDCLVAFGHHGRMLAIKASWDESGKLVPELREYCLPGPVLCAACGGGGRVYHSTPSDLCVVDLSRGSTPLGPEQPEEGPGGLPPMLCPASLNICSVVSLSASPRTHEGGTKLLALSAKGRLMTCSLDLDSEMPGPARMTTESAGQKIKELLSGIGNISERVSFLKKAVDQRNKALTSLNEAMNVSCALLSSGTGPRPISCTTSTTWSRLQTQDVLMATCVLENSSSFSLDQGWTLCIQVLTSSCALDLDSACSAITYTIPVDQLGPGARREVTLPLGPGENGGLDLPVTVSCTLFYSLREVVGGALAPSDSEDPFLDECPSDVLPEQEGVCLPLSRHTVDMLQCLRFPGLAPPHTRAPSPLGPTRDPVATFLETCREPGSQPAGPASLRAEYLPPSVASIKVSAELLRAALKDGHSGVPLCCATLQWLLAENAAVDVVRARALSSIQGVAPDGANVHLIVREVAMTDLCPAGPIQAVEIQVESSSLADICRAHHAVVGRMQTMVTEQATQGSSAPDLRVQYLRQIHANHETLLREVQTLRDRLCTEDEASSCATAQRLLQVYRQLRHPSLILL
UniProt O60645: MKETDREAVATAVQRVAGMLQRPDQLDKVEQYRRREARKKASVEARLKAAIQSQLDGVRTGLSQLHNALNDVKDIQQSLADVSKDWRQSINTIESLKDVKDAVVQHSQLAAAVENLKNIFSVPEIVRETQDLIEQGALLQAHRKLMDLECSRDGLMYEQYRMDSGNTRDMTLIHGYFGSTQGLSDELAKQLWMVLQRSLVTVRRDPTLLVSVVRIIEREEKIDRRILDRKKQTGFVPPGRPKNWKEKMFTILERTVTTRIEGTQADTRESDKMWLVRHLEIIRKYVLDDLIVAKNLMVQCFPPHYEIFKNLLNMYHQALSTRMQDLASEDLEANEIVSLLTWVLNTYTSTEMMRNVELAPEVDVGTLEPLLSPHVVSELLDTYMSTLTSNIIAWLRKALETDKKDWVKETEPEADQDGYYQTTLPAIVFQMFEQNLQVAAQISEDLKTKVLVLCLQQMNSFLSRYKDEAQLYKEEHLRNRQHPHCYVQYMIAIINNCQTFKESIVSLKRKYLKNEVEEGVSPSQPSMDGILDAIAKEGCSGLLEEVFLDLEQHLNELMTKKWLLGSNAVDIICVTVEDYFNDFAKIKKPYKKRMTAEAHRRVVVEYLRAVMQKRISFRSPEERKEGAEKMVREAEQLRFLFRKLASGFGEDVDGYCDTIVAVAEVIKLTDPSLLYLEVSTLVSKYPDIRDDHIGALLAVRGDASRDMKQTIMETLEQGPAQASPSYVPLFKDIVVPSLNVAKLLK

Legend:
Experiment in all cases: log2 fold change, soluble protein after heating vs DMSO (PISA); higher = thermal stabilisation; K562 lysate, 10 uM; active = over 0.2 and 3.5 SD of the protein, either way, in both replicates (recomputed)
ibrutinib = compound: C=CC(=O)N1CCC[C@@H](n2nc(-c3ccc(Oc4ccccc4)cc3)c3c(N)ncnc32)C1 [ibrutinib]
Summary of the method: (§1)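 A 30 min treatment with 10 μM compound was applied to crude K562 extract at 1 mg/mL protein in PBS pH 7.4 with 1 mM MgCl2. Heating for 3 min spanned 48°C-58°C, after which aliquots were pooled, adjusted to 0.5% NP-40 at 4°C and spun at 21,000xg for 90 min. TMTpro 16plex LC-MS/MS of the supernatant, with channel sums equalised, gave values recorded as log-two fold change in thermal stability against solvent controls, from duplicates.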

[1] = compound: CC(=O)c1cnc2ccc(-c3cc(Cl)c(O)c(Cl)c3)nc2c1N[C@H]1CC[C@H](CN(C)C)CC1
Summary of the method: as §1

ralimetinib = compound: CC(C)(C)Cn1c(N)nc2ccc(-c3[nH]c(C(C)(C)C)nc3-c3ccc(F)cc3)nc21 [ralimetinib]
Summary of the method: as §1

[2] = compound: CC(C)(O)CC(=O)NCCn1ccc2ncnc(Nc3ccc(Oc4cccc(C(F)(F)F)c4)c(Cl)c3)c21
Summary of the method: as §1

[3] = compound: CC(C)C1=C2N=C(C=C(N2N=C1)NCC3=CC=CC=C3)NCCCCCCN
Summary of the method: as §1

[4] = compound: CC1=C(C(CC(=O)N1)C2=CC=C(C=C2)C(F)(F)F)C(=O)NC3=C(C=C4C(=C3)C=NN4)F
Summary of the method: as §1

[5] = compound: CC1=C(C2=C(C=C1)C(=O)C3=CC=CC=C3N2CCCN)C
Summary of the method: as §1

[6] = compound: CC1=C(C=C(C=C1)NC(=O)C2=CC(=CC=C2)C(C)(C)C#N)NC3=CC4=C(C=C3)N=CN(C4=O)C
Summary of the method: as §1

[7] = compound: CC1=C(C=C(C=C1)NC(=O)C2=CC(=CC=C2)N(C)C)NC(=O)C3=CC=C(C=C3)O
Summary of the method: as §1

[8] = compound: CC1=CC=C(C=C1)SC2=C3C=C(SC3=CN=C2)C(=O)N
Summary of the method: as §1

vemurafenib = compound: CCCS(=O)(=O)Nc1ccc(F)c(C(=O)c2c[nH]c3ncc(-c4ccc(Cl)cc4)cc23)c1F [vemurafenib]
Summary of the method: as §1

[9] = compound: CCCS(=O)(=O)Nc1ccc(F)c(C(=O)c2c[nH]c3ncc(Cl)cc23)c1F
Summary of the method: as §1

barasertib = compound: CCN(CCCOc1ccc2c(Nc3cc(CC(=O)Nc4cccc(F)c4)[nH]n3)ncnc2c1)CCOP(=O)(O)O [barasertib]
Summary of the method: as §1

[10] = compound: CC[C@@H]1C(=O)N(C)c2cnc(Nc3ccc(C(=O)NC4CCN(C)CC4)cc3OC)nc2N1C1CCCC1
Summary of the method: as §1

volasertib = compound: CC[C@@H]1C(=O)N(C)c2cnc(Nc3ccc(C(=O)N[C@H]4CC[C@H](N5CCN(CC6CC6)CC5)CC4)cc3OC)nc2N1C(C)C [volasertib]
Summary of the method: as §1

[11] = compound: CCn1c(C(=O)N(C2CC2)C2CC2)cc2c3c(ncn3C)c(Nc3cc(C)n(C)n3)nc21
Summary of the method: as §1

[12] = compound: CCn1cc(-c2ccnc3[nH]c(-c4cccc(CN(C)C)c4)cc23)c(-c2ccc(NC(=O)N(C)C)cc2)n1
Summary of the method: as §1

[13] = compound: CN1CCC(CNc2ccc3ncc(-c4cccc(OC(F)(F)F)c4)n3n2)CC1
Summary of the method: as §1

saracatinib = compound: CN1CCN(CCOc2cc(OC3CCOCC3)c3c(Nc4c(Cl)ccc5c4OCO5)ncnc3c2)CC1 [saracatinib]
Summary of the method: as §1

sotrastaurin = compound: CN1CCN(c2nc(C3=C(c4c[nH]c5ccccc45)C(=O)NC3=O)c3ccccc3n2)CC1 [sotrastaurin]
Summary of the method: as §1

Measured: log2 fold change

EXOC6 (UniProt Q8TAG9)
inactive: ibrutinib 0 | [1] 0.072 | ralimetinib 0.034 | [2] -0.018 | [3] -0.049 | [4] 0.048 | [5] 0.049 | [6] -0.022 | [7] 0.042 | [8] 0.01 | vemurafenib -0.041 | [9] 0.033 | barasertib 0.032 | [10] -0.033 | volasertib -0.047 | [11] 0.032 | [12] -0.05 | [13] -0.075 | saracatinib 0.018 | sotrastaurin 0.06

ERP44 (UniProt Q9BS26)
inactive: ibrutinib 0.055 | [1] -0.017 | ralimetinib 0.02 | [2] -0.019 | [3] 0.006 | [4] 0.003 | [5] 0.008 | [6] -0.017 | [7] 0.004 | [8] -0.003 | vemurafenib 0.002 | [9] -0.012 | barasertib 0.004 | [10] 0.015 | volasertib 0.015 | [11] 0.02 | [12] -0.03 | [13] 0.069 | saracatinib 0.008 | sotrastaurin 0.018

EXT2 isoform 3 (UniProt Q93063)
inactive: ibrutinib 0.166 | [1] 0.038 | ralimetinib -0.005 | [2] 0.016 | [3] -0.113 | [4] 0.04 | [5] -0.061 | [6] 0.06 | [7] -0.004 | [8] 0.189 | vemurafenib 0.062 | [9] 0.081 | barasertib -0.052 | [10] 0 | volasertib -0.09 | [11] -0.006 | [12] -0.056 | [13] -0.019 | saracatinib 0.141 | sotrastaurin -0.016

EXOC1 (UniProt Q9NV70)
inactive: ibrutinib -0.043 | [1] 0.012 | ralimetinib 0.04 | [2] -0.004 | [3] -0.023 | [4] -0.022 | [5] 0.016 | [6] -0.026 | [7] 0.032 | [8] -0.011 | vemurafenib 0 | [9] 0.027 | barasertib 0.051 | [10] -0.106 | volasertib -0.03 | [11] 0.082 | [12] 0.053 | [13] -0.119 | saracatinib 0 | sotrastaurin 0.02

EXOSC4 (UniProt Q9NPD3)
inactive: ibrutinib -0.004 | [1] -0.009 | ralimetinib 0.028 | [2] 0.004 | [3] -0.021 | [4] 0.004 | [5] -0.012 | [6] 0.008 | [7] 0.031 | [8] 0.005 | vemurafenib -0.018 | [9] 0.03 | barasertib -0.019 | [10] 0.022 | volasertib 0.022 | [11] -0.038 | [12] -0.033 | [13] 0.061 | saracatinib -0.027 | sotrastaurin 0.012

ESD (UniProt P10768)
inactive: ibrutinib -0.011 | [1] -0.01 | ralimetinib -0.023 | [2] 0.019 | [3] 0.004 | [4] -0.002 | [5] 0.018 | [6] 0.021 | [7] -0.027 | [8] 0.025 | vemurafenib 0.017 | [9] 0.034 | barasertib -0.041 | [10] -0.008 | volasertib 0.005 | [11] 0.023 | [12] 0.004 | [13] 0.014 | saracatinib -0.016 | sotrastaurin -0.062

EXOSC5 (UniProt Q9NQT4)
inactive: ibrutinib 0.036 | [1] -0.015 | ralimetinib -0.059 | [2] 0.062 | [3] -0.021 | [4] 0.033 | [5] -0.034 | [6] -0.038 | [7] -0.019 | [8] 0.016 | vemurafenib 0 | [9] -0.005 | barasertib 0.026 | [10] 0.002 | volasertib 0 | [11] -0.003 | [12] -0.018 | [13] -0.024 | saracatinib 0.01 | sotrastaurin -0.004

FAM83D (UniProt Q9H4H8)
inactive: ibrutinib 0.028 | [1] 0.031 | ralimetinib 0.041 | [2] -0.018 | [3] 0.013 | [4] 0.038 | [5] -0.098 | [6] -0.032 | [7] 0.031 | [8] 0.017 | vemurafenib -0.015 | [9] 0 | barasertib 0.074 | [10] 0.045 | volasertib -0.047 | [11] -0.01 | [12] -0.052 | [13] 0.029 | saracatinib -0.008 | sotrastaurin 0.032

FAM160B1 (UniProt Q5W0V3)
inactive: ibrutinib 0.04 | [1] 0.006 | ralimetinib 0.004 | [2] -0.02 | [3] -0.021 | [4] 0.028 | [5] -0.03 | [6] 0.034 | [7] 0.02 | [8] -0.015 | vemurafenib -0.002 | [9] 0.022 | barasertib 0.015 | [10] 0.042 | volasertib -0.017 | [11] 0.008 | [12] -0.07 | [13] 0.001 | saracatinib 0.004 | sotrastaurin 0.044

ETFDH (UniProt Q16134)
inactive: ibrutinib -0.012 | [1] -0.02 | ralimetinib 0.017 | [2] -0.045 | [3] -0.031 | [4] 0.001 | [5] -0.029 | [6] -0.002 | [7] -0.002 | [8] -0.001 | vemurafenib -0.008 | [9] -0.005 | barasertib 0.03 | [10] -0.015 | volasertib -0.026 | [11] -0.013 | [12] -0.03 | [13] -0.022 | saracatinib 0.011 | sotrastaurin 0.005

EXOSC1 (UniProt Q9Y3B2)
inactive: ibrutinib -0.016 | [1] 0.032 | ralimetinib -0.02 | [2] 0.006 | [3] -0.053 | [4] -0.019 | [5] -0.041 | [6] -0.013 | [7] 0.035 | [8] 0.034 | vemurafenib 0.001 | [9] 0.059 | barasertib -0.069 | [10] 0.022 | volasertib -0.024 | [11] 0.049 | [12] -0.01 | [13] -0.035 | saracatinib 0.034 | sotrastaurin 0.014

FAM83A (UniProt Q86UY5)
inactive: ibrutinib 0.125 | [1] 0.006 | ralimetinib 0.008 | [2] 0.053 | [3] -0.06 | [4] 0.018 | [5] 0.023 | [6] 0.035 | [7] -0.023 | [8] 0.026 | vemurafenib 0.038 | [9] -0.002 | barasertib 0.035 | [10] -0.001 | volasertib 0.003 | [11] 0.05 | [12] 0.103 | [13] 0.06 | saracatinib 0.01 | sotrastaurin -0.049

FAM162A (UniProt Q96A26)
inactive: ibrutinib 0.065 | [1] 0.073 | ralimetinib 0.007 | [2] 0.042 | [3] -0.016 | [4] 0.028 | [5] -0.006 | [6] -0.02 | [7] 0.002 | [8] 0.044 | vemurafenib 0.035 | [9] -0.041 | barasertib -0.013 | [10] 0.086 | volasertib 0.029 | [11] 0.054 | [12] -0.101 | [13] 0.047 | saracatinib -0.022 | sotrastaurin -0.028

FAAP100 (UniProt Q0VG06)
inactive: ibrutinib 0.055 | [1] 0.005 | ralimetinib 0 | [2] 0.077 | [3] -0.071 | [4] -0.043 | [5] -0.022 | [6] -0.028 | [7] 0.002 | [8] 0.008 | vemurafenib -0.104 | [9] 0.01 | barasertib -0.059 | [10] -0.035 | volasertib -0.017 | [11] 0.032 | [12] 0.053 | [13] -0.019 | saracatinib -0.144 | sotrastaurin 0.015

EXOC3 (UniProt O60645)
inactive: ibrutinib -0.029 | [1] -0.012 | ralimetinib 0.025 | [2] 0.048 | [3] 0.025 | [4] 0 | [5] -0.042 | [6] 0.037 | [7] 0.067 | [8] 0.004 | vemurafenib 0.049 | [9] 0.021 | barasertib 0.02 | [10] -0.081 | volasertib -0.086 | [11] 0.045 | [12] -0.057 | [13] -0.001 | saracatinib 0.004 | sotrastaurin 0.03

FAF2 (UniProt Q96CS3)
inactive: ibrutinib 0.041 | [1] 0.057 | ralimetinib 0.045 | [2] -0.009 | [3] 0.018 | [4] -0.036 | [5] 0.045 | [6] 0.034 | [7] 0.006 | [8] 0.041 | vemurafenib 0.01 | [9] 0.048 | barasertib 0.046 | [10] 0.002 | volasertib -0.068 | [11] -0.016 | [12] 0.045 | [13] -0.037 | saracatinib 0.004 | sotrastaurin -0.001
